According to patent US20030083239A1, “Chemokine receptor CCR3 antagonists” (priority 1999, published 2003):
Results are given in words; binding and its absence hold for the method and conditions named. Some results given as binding are weak or reduced against the parent protein; the word gives no strength.

Biological target: T1, CCR3 transfected in 293 cells (UniProt P51677)
T1 sequence (looked up): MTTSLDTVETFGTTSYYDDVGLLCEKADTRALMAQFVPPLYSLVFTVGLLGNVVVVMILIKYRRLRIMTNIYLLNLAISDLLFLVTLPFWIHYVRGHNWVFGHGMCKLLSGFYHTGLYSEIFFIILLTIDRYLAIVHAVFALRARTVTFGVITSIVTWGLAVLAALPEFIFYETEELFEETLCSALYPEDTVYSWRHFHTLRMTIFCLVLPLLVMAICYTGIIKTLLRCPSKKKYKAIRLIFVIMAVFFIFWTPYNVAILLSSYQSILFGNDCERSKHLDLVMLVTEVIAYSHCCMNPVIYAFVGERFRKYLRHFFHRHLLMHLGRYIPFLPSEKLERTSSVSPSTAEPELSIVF
Assay: 125I-eotaxin competition binding on 293 cells transfected with CCR3

## CRCAAR [hexamer peptide CRCAAR (SEQ ID NO: 1), peptide SC004411]
  binding: binds
